Here are results for 2 molecules from publication PMC6222128.

No constants are given. Whether binding was seen depends on the method and setting. Binding seen in cells or lysates may run through a third protein. A yes stands for co-enrichment or nearness to the bait. Other partners may have been found.

Experiment [1] has as its target French Polynesian ZIKV capsid (H/PF/2013), C-terminal 2xStrep II tag (Zika virus (French Polynesian 2013 strain H/PF/2013, Asian lineage)). Kind of experiment: affinity purification with mass spectrometry; 2xStrep II-tagged capsid expressed in HEK293T; clarified lysates on Strep-Tactin Superflow overnight at 4°C; eluted with desthiobiotin; LC-MS/MS, scored with SAINTq against GFP and empty vector.

Experiment [2] has as its target Ugandan ZIKV capsid (MR 766), C-terminal 2xStrep II tag (Zika virus (Ugandan 1947 strain MR 766, African lineage)). The description is as above.

B1: UPF3B, endogenous (protein, UniProt Q9BZI7 1-483)
chain: MKEEKEHRPKEKRVTLLTPAGATGSGGGTSGDSSKGEDKQDRNKEKKEALSKVVIRRLPPTLTKEQLQEHLQPMPEHDYFEFFSNDTSLYPHMYARAYINFKNQEDIILFRDRFDGYVFLDNKGQEYPAIVEFAPFQKAAKKKTKKRDTKVGTIDDDPEYRKFLESYATDNEKMTSTPETLLEEIEAKNRELIAKKTTPLLSFLKNKQRMREEKREERRRREIERKRQREEERRKWKEEEKRKRKDIEKLKKIDRIPERDKLKDEPKIKVHRFLLQAVNQKNLLKKPEKGDEKELDKREKAKKLDKENLSDERASGQSCTLPKRSDSELKDEKPKRPEDESGRDYREREREYERDQERILRERERLKRQEEERRRQKERYEKEKTFKRKEEEMKKEKDTLRDKGKKAESTESIGSSEKTEKKEEVVKRDRIRNKDRPAMQLYQPGARSRNRLCPPDDSTKSGDSAAERKQESGISHRKEGGEE
For B1, the binding entry in experiment [1] and in experiment [2] was “binds” throughout.

B2: up-frameshift protein 1 (UPF1), endogenous (protein, UniProt Q92900 1-1129)
chain: MSVEAYGPSSQTLTFLDTEEAELLGADTQGSEFEFTDFTLPSQTQTPPGGPGGPGGGGAGGPGGAGAGAAAGQLDAQVGPEGILQNGAVDDSVAKTSQLLAELNFEEDEEDTYYTKDLPIHACSYCGIHDPACVVYCNTSKKWFCNGRGNTSGSHIVNHLVRAKCKEVTLHKDGPLGETVLECYNCGCRNVFLLGFIPAKADSVVVLLCRQPCASQSSLKDINWDSSQWQPLIQDRCFLSWLVKIPSEQEQLRARQITAQQINKLEELWKENPSATLEDLEKPGVDEEPQHVLLRYEDAYQYQNIFGPLVKLEADYDKKLKESQTQDNITVRWDLGLNKKRIAYFTLPKTDSGNEDLVIIWLRDMRLMQGDEICLRYKGDLAPLWKGIGHVIKVPDNYGDEIAIELRSSVGAPVEVTHNFQVDFVWKSTSFDRMQSALKTFAVDETSVSGYIYHKLLGHEVEDVIIKCQLPKRFTAQGLPDLNHSQVYAVKTVLQRPLSLIQGPPGTGKTVTSATIVYHLARQGNGPVLVCAPSNIAVDQLTEKIHQTGLKVVRLCAKSREAIDSPVSFLALHNQIRNMDSMPELQKLQQLKDETGELSSADEKRYRALKRTAERELLMNADVICCTCVGAGDPRLAKMQFRSILIDESTQATEPECMVPVVLGAKQLILVGDHCQLGPVVMCKKAAKAGLSQSLFERLVVLGIRPIRLQVQYRMHPALSAFPSNIFYEGSLQNGVTAADRVKKGFDFQWPQPDKPMFFYVTQGQEEIASSGTSYLNRTEAANVEKITTKLLKAGAKPDQIGIITPYEGQRSYLVQYMQFSGSLHTKLYQEVEIASVDAFQGREKDFIILSCVRANEHQGIGFLNDPRRLNVALTRARYGVIIVGNPKALSKQPLWNHLLNYYKEQKVLVEGPLNNLRESLMQFSKPRKLVNTINPGARFMTTAMYDAREAIIPGSVYDRSSQGRPSSMYFQTHDQIGMISAGPSHVAAMNIPIPFNLVMPPMPPPGYFGQANGPAAGRGTPKGKTGRGGRQKNRFGLPGPSQTNLPNSQASQDVASQPFSQGALTQGYISMSQPSQMSQPGLSQPELSQDSYLGDEFKSQIDVALSQDSTYQGERAYQHGGVTGLSQY
Turning to B2, the binding result in experiment [1] and in experiment [2] was “binds” each time.
